According to publication PMC11565642, “ATP-Triggered Fe(CN)2CO Synthon Transfer from the Maturase HypCD to the Active Site of Apo-[NiFe]-Hydrogenase” (Journal of the American Chemical Society, 2024):
These are yes or no findings as the source states them, for the method shown. For some assays here: Binding seen in cells or lysates may run through a third protein. Some entries that bind do so weakly or less than the wild type. Where a sequence is shown, tags or fusion partners need not be part of it. Blank lines part the entries; values can stand above or below the binder they belong to.

How the values were obtained:
[1] = target: T1, HypC from Escherichia coli with a C-terminal hexa-His affinity tag (Escherichia coli) (UniProt P0AAM3); assay: pull-down; HisPur Ni-NTA affinity chromatography by the hexa-His tag on HypC from soluble extract of E. coli producing holo-HypCH-D; 4 °C; UV-vis and IR spectra of the isolated complex
T1 sequence: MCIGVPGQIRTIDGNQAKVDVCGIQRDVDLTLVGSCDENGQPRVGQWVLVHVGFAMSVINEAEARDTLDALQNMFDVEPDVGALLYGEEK

[2] = target: T2, HypC_(Strep) (HypC from Escherichia coli with Strep-tag II C-terminally fused) (Escherichia coli) (UniProt P0AAM3); assay: SEC; holo-HypCS-D after Strep-Tactin affinity chromatography, Superdex 200 Increase 10/300 GL; oligomers separated from the HypCD complex; both purified
T2 sequence: T1 sequence

binding [1]: binds
B1: HypD from Escherichia coli (protein, UniProt P24192 1-373)
chain: MRFVDEYRAPEQVMQLIEHLRERASHLSYTAERPLRIMEVCGGHTHAIFKFGLDQLLPENVEFIHGPGCPVCVLPMGRIDTCVEIASHPEVIFCTFGDAMRVPGKQGSLLQAKARGADVRIVYSPMDALKLAQENPTRKVVFFGLGFETTMPTTAITLQQAKARDVQNFYFFCQHITLIPTLRSLLEQPDNGIDAFLAPGHVSMVIGTDAYNFIASDFHRPLVVAGFEPLDLLQGVVMLVQQKIAAHSKVENQYRRVVPDAGNLLAQQAIADVFCVNGDSEWRGLGVIESSGVHLTPDYQRFDAEAHFRPAPQQVCDDPRARCGEVLTGKCKPHQCPLFGNTCNPQTAFGALMVSSEGACAAWYQYRQQESEA

binding [2]: binds
B2: HypE (protein, UniProt P24193 1-336)
chain: MNNIQLAHGSGGQAMQQLINSLFMEAFANPWLAEQEDQARLDLAQLVAEGDRLAFSTDSYVIDPLFFPGGNIGKLAICGTANDVAVSGAIPRYLSCGFILEEGLPMETLKAVVTSMAETARAAGIAIVTGDTKVVQRGAVDKLFINTAGMGAIPANIHWGAQTLTAGDVLLVSGTLGDHGATILNLREQLGLDGELVSDCAVLTPLIQTLRDIPGVKALRDATRGGVNAVVHEFAAACGCGIELSEAALPVKPAVRGVCELLGLDALNFANEGKLVIAVERNAAEQVLAALHSHPLGKDAALIGEVVERKGVRLAGLYGVKRTLDLPHAEPLPRIC
